From publication PMC7819943, “Rice protein-binding microarrays: a tool to detect cis-acting elements near promoter regions in rice”
Some of the results follow.

Chains of the proteins cited; added tags and fusions are not shown.
UniProt Q0JBA9, entry or part of it: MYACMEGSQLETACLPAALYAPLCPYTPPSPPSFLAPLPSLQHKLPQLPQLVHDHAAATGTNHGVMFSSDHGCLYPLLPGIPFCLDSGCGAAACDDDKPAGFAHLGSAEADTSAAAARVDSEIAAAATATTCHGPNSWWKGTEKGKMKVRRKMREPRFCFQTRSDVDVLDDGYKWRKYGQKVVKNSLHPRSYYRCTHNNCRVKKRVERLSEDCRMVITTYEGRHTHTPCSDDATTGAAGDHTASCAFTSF

target: OsWRKY34 (Oryza sativa, UniProt Q0JBA9 1-250); test: protein-binding microarray (RPBM); PBS, 2% BSA, 51.3 ng/ul salmon testes DNA, 50 uM zinc acetate, 200 nM TF, 25 C, 1 h; high values mean tight binding; settings: protein: recombinant; tags: N-terminal polyhistidine and DsRed monomer fusion (pET32a); label: CyDye5-dUTP incorporated in the synthesized complementary strand; 3' TTTTT single-stranded linker to array surface; dsDNA, one strand shown
Method in brief: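 Transcription factors were each fused at the N-terminus to a polyhistidine tag plus DsRed and expressed in E. coli BL21-CodonPlus before Ni–NTA purification. Binding to a double-stranded custom Agilent array was carried out with 200 nM protein at 25 °C for 1 h in PBS, 2% BSA, salmon testes DNA and 50 µM zinc acetate. The binding signal is per-feature fluorescence intensity, in arbitrary units, on an Axon 4000B scanner.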

Row | Sequence | binding signal
1 | CATACATAAACTTTCAACTTTTCCGTCACATCGCTCCAATCGGAGTCACCTAGTGCAG | 8140 fluorescence intensity (a.u.)
2 | TTTCGTATTTGTTACCAGTTTTCGATTTGTACCGACATGTCGGAGTCACCTAGTGCAG | 9820 fluorescence intensity (a.u.)
3 | CCTCTCTATCTCTCTCTCGTCGTCTACCTCTCATCTCCTTCGGAGTCACCTAGTGCAG | 14100 fluorescence intensity (a.u.)
4 | CTTTGCTTGCACTTGGACGAGTACAAGTATTTGGATCCTTCGGAGTCACCTAGTGCAG | 8240 fluorescence intensity (a.u.)
5 | CATACTTATTTCTTCTGAGTTTTGAGTTTTGACTGACAAGCGGAGTCACCTAGTGCAG | 8940 fluorescence intensity (a.u.)
6 | ATCACCTTCACGTTCCGAGATGTGGCACGAATCCCGAGGACGGAGTCACCTAGTGCAG | 8070 fluorescence intensity (a.u.)
7 | CTGTACTTGCTCTTAGGTTGGCGTTTTGCTTTAAGATTGTCGGAGTCACCTAGTGCAG | 8520 fluorescence intensity (a.u.)
8 | CATAATTCTTGACGTCCTTACCAATAACACAGGGCATCATCGGAGTCACCTAGTGCAG | 8460 fluorescence intensity (a.u.)
9 | AGTCTGGCTTGCACATCTGCTGTTTACAACACATCAAATTCGGAGTCACCTAGTGCAG | 9810 fluorescence intensity (a.u.)
10 | ACTTCTTCTTTTTTTCATATATGCCATGTGTATGACATGTCGGAGTCACCTAGTGCAG | 9760 fluorescence intensity (a.u.)
11 | CGCGTTGGAATTCAGCTGTTAACTTCTTTGTACCTACAAGCGGAGTCACCTAGTGCAG | 10100 fluorescence intensity (a.u.)
12 | CTGGCGTCGCTGTTTCTGGGGATTTGTTGGGAGTGTAGCACGGAGTCACCTAGTGCAG | 9400 fluorescence intensity (a.u.)
13 | GGAGGGTTAGGGTTAGGATTCAGAGACTACTGTACTTATTCGGAGTCACCTAGTGCAG | 10900 fluorescence intensity (a.u.)
14 | TCTCCTCTCCTACCCTTCTTCTTCTTCCACTTGAAGCTTTCGGAGTCACCTAGTGCAG | 10600 fluorescence intensity (a.u.)
15 | CCGCTGTCATCTCCTTTACTGATAACCATTTACTCATCCACGGAGTCACCTAGTGCAG | 10300 fluorescence intensity (a.u.)
16 | TACTTTTTTTAATTACACACAGACACAGACGCGCACATACCGGAGTCACCTAGTGCAG | 8300 fluorescence intensity (a.u.)
17 | ATTTCCCCTTTCGTTATCTTGGCCCAAACGTGTGGTTTCCCGGAGTCACCTAGTGCAG | 10600 fluorescence intensity (a.u.)
18 | AGCTCTCTCTCTCCTCCCGGTTCACGACCTTCCATCCGCCCGGAGTCACCTAGTGCAG | 8120 fluorescence intensity (a.u.)
19 | GGGAGGGTTTTTTTTTTCTTTTTGGTGTTGTTTTTGGATGCGGAGTCACCTAGTGCAG | 13000 fluorescence intensity (a.u.)
20 | GGGAGTGGCGGGTTCAAGCTCGAGCTGTGGTGCCTACCGTCGGAGTCACCTAGTGCAG | 9680 fluorescence intensity (a.u.)
21 | TTGTTCTTTTACATGGCTACACAGATCACATACATTAAAACGGAGTCACCTAGTGCAG | 8200 fluorescence intensity (a.u.)

Row | Sequence | binding signal
22 | ATTTGACCGGCATTGTATTGTTCGTCGTCGAGGAGGAGGGCGGAGTCACCTAGTGCAG | 8280 fluorescence intensity (a.u.)
23 | GTTTGTCCTGTATGTATTGCGATGAGTTCTTGAAAATCCTCGGAGTCACCTAGTGCAG | 13200 fluorescence intensity (a.u.)
24 | CTCCCATGCATGCAACCCTAGCTACACATTCCAAATAACTCGGAGTCACCTAGTGCAG | 9170 fluorescence intensity (a.u.)
25 | GTCAGAAACATGTTTTTCTCGTATTTATCTTCTTTTTTTTCGGAGTCACCTAGTGCAG | 10900 fluorescence intensity (a.u.)
26 | GGAGGTCTAAGATTTTCTGGTATTTCGGTTTAGTGCGGATCGGAGTCACCTAGTGCAG | 9650 fluorescence intensity (a.u.)
27 | TTCGCGGAGACTTATCGTCTCTCTTCCATTCTGCTTGAACCGGAGTCACCTAGTGCAG | 8500 fluorescence intensity (a.u.)
28 | CTGTTAGTATGCCTGGTCTCCTCTACTGATGCTTGAATGCCGGAGTCACCTAGTGCAG | 9850 fluorescence intensity (a.u.)
29 | TTGTTTCGTCCTCACTCATCGCCGCTCCGCCATTGCCCAGCGGAGTCACCTAGTGCAG | 11600 fluorescence intensity (a.u.)
30 | GCCGTCCTCGCCGCCGCCTCCGGCCCCGTCCTCGCCACTGCGGAGTCACCTAGTGCAG | 8770 fluorescence intensity (a.u.)
31 | GCAATCACCATTTTGTAAACAAATCATGCATCCTGCCGGTCGGAGTCACCTAGTGCAG | 9870 fluorescence intensity (a.u.)
32 | GCTATCGCCGGTTTCGTCATCAATAATCTTCTCTGCCTCTCGGAGTCACCTAGTGCAG | 8820 fluorescence intensity (a.u.)
33 | TCTCTCCGTTTCACAATATAAGTCATTTTAGTATTTCTTACGGAGTCACCTAGTGCAG | 10200 fluorescence intensity (a.u.)
34 | AACCACTCTTCTCCTGACACCTCTCGCCGCCGCGTCTCTCCGGAGTCACCTAGTGCAG | 14500 fluorescence intensity (a.u.)
35 | TTTTCTATCAATATCATCTTCCATAGCGTCTTCCGTCGAGCGGAGTCACCTAGTGCAG | 8490 fluorescence intensity (a.u.)
36 | TTTTCTCCGGCCGTTCGCCTGTTTTTGTTCGTGTGATAGCCGGAGTCACCTAGTGCAG | 12400 fluorescence intensity (a.u.)
37 | CGACACTATATTCTGCTGTTTTTTTCCTTGTTGCCCGCATCGGAGTCACCTAGTGCAG | 8100 fluorescence intensity (a.u.)
38 | GGGTTTCAATCATACAAATTTTTTATGAGGTCTTTTAAAACGGAGTCACCTAGTGCAG | 8120 fluorescence intensity (a.u.)
39 | TCTTTCGTTTTTGGTACGCACGCTTTTCAAATTATTCAATCGGAGTCACCTAGTGCAG | 8770 fluorescence intensity (a.u.)
40 | CCATATTTTAATGTATGACGCCATTGACTTTTTGTCCAACCGGAGTCACCTAGTGCAG | 14500 fluorescence intensity (a.u.)
41 | CATTTTGCAAGAGAGCTTCACCCAGCTCCGCTTCCATTTTCGGAGTCACCTAGTGCAG | 10600 fluorescence intensity (a.u.)
42 | ACCAATTGGTTTCACTCATCATTCATTCTTTCATTCCTCACGGAGTCACCTAGTGCAG | 8980 fluorescence intensity (a.u.)

Look-ups from above:
binding signal, TTCGCGGAGACTTATCGTCTCTCTTCCATTCTGCTTGAACCGGAGTCACCTAGTGCAG reads 8500 fluorescence intensity (a.u.)
binding signal, CTCCCATGCATGCAACCCTAGCTACACATTCCAAATAACTCGGAGTCACCTAGTGCAG reads 9170 fluorescence intensity (a.u.)
